Laboratory results: patent publication US11173166B2, “Composition and uses thereof” (BH Biotech Pty Ltd, priority 2017, dated 2021)
For at least one compound, name, drawing or mass did not settle the structure.

Amino acid sequences for entries named in this document (tags omitted).
UniProt Q96P20, whole entry: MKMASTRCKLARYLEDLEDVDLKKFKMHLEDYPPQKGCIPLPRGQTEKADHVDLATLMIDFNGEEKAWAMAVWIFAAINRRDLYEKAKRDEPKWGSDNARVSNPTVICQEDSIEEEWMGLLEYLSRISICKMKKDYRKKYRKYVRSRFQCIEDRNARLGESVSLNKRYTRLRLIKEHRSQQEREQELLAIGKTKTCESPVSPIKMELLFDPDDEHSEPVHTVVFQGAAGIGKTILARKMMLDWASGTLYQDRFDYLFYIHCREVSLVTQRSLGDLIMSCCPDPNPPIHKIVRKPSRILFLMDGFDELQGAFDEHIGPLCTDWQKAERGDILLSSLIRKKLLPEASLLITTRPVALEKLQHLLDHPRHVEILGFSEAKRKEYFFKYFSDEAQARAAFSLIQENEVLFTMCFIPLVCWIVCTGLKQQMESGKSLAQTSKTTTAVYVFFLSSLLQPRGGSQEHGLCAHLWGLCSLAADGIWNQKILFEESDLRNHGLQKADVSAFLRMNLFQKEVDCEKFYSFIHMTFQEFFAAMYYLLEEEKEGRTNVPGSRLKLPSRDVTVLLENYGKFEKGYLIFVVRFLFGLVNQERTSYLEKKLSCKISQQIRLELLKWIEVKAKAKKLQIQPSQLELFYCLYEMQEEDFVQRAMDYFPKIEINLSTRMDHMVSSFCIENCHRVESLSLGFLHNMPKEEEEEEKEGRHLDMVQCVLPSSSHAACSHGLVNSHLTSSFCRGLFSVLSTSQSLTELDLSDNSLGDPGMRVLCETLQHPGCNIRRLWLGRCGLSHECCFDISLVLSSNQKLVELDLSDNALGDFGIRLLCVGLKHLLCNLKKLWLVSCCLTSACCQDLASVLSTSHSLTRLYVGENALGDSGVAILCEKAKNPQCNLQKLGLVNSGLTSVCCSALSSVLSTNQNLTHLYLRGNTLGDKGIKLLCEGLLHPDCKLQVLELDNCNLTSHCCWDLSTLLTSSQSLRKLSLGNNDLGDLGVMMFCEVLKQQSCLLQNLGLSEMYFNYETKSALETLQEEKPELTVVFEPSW

Target: NLRP3 inflammasome (Homo sapiens, UniProt Q96P20)
Assay: THP-1 NLRP3 inflammasome assay (LPS priming plus ATP stimulation, IL-1β ELISA), with Chou-Talalay CI analysis
Conditions: for efficacy relative to vehicle control (ANOVA): low dose: below Fa 0.4 for pure compounds, approximately Fa 0.2 for extracts; for inhibition of NLRP3 inflammasome activation (IL-1β production), in words: single agent, THP-1 primed with LPS, stimulated with ATP

Structure (SMILES)	efficacy relative to vehicle control (ANOVA)	potentiation of the efficacy of the plant extract mix (low doses where EPA alone had no significant effect)	inhibition of NLRP3 inflammasome activation (IL-1β production), in words
CC/C=C\C/C=C\C/C=C\C/C=C\C/C=C\CCCC(=O)O [EPA, eicosapentaenoic acid]	did not cause significant inhibition of inflammation	approximately three-fold	
O=C(/C=C/C=C/c1ccc2c(c1)OCO2)N1CCCCC1 [piperine]	efficacious relative to the vehicle treated control		inhibit NLRP3 inflammasome activity
CC/C=C\C/C=C\C/C=C\C/C=C\C/C=C\C/C=C\CCC(=O)O [DHA, docosahexaenoic acid]			inhibits NLRP3 activity
